Results on two substances are retold here after publication doi:10.1101/2025.06.25.661491.

Amino acid sequences for entries named in this document (tags omitted). Residues count along the entry.
UniProt P14334, 20-183: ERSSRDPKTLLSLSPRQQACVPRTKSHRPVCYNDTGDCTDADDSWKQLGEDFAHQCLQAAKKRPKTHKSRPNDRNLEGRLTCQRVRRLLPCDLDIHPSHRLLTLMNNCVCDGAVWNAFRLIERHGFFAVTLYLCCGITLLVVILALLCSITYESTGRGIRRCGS
UniProt P27797, 18-417: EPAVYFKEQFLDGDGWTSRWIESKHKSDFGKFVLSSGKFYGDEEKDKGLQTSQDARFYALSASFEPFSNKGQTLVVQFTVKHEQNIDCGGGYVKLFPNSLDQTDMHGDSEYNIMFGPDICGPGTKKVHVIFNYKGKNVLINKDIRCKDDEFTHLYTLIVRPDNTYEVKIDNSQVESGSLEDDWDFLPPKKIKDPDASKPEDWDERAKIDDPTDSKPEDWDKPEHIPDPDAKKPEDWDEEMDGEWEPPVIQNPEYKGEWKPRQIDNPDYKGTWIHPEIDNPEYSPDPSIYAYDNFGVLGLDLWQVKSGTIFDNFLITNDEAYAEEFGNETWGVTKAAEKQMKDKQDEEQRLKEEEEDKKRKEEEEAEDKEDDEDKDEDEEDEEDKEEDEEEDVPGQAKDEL
UniProt P61769, 21-119: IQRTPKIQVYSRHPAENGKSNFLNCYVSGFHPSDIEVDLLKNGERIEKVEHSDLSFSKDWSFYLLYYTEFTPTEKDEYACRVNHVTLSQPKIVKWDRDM

These are yes or no findings as the source states them, for the method shown. Binding seen in cells or lysates may run through a third protein. Some entries that bind do so weakly or less than the wild type.

This test concerns the target US6 fused at its C terminus with a streptavidin-binding peptide (US6^SBP) (human cytomegalovirus (HCMV)) (UniProt P14334). Put plainly: pull-down.

In the case of “calreticulin (from UniProt P27797 18-417)”, the binding result is “binds”.
Then “β2-microglobulin (from UniProt P61769 21-119)”, with “binds”.
